According to PubChem BioAssay AID504467 (National Center for Advancing Translational Sciences (NCATS), 2011):
Hit rate of the full screen: of about 330,000 compounds, about 7,700 (2.3%) were called active. Inconclusive results, whose numbers are uncertain, are shown with a selection of clear calls. Calls come from the whole dose curve; as a rule, active = well fitted inhibition curve with a large enough effect; inconclusive = small, poorly fitted or top-dose-only effect, or effect the other way; inactive = flat fitted curve, though single readings scatter. A potency beside an inconclusive call is a rough fit, not a confirmed value.

Assay: qHTS screen for small molecules that inhibit ELG1-dependent DNA repair in human embryonic kidney (HEK293T) cells expressing luciferase-tagged ELG1; note: nearly all actives have a fitted effect of over 55% in size
Settings: HEK293T ELG1-luciferase reporter, luminescence, 16 h, DNA damage induced by 5-fluorouridine; series mostly up to 46.1 µM
How it was run: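 HEK293T cells expressing luciferase-tagged ELG1 (2,000/well) received 5-Fluorouridine plus compound or DMSO for 16 hr at 37 °C. Luciferase was read by ONE-Glo luminescence after 30 min at room temperature.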
Potency is the fitted concentration of half-maximal effect.

Which Potency does the source give for `COc1cn(-c2ccccc2)nc1C(=O)OCC(=O)Nc1ccc(C)c(C)c1` here?
The Potency was inconclusive: 25.9 µM [activator, single point].

For `COc1cccc(OC)c1C(=O)OCC(=O)Nc1ccc(OC(F)(F)F)cc1`, which Potency is on record?
Its Potency is active: 20.6 µM.

With `Cc1cc(NC(c2ccc(Cl)cc2)c2ccc3cccnc3c2O)no1` (centres undefined) as the compound, how does the Potency read?
The Potency was inconclusive: 2.06 µM [inhibitor, full curve].

Which Potency does the source give for `Cc1nc(-c2ccc(C(=O)Nc3ccc(F)cc3)cc2)cs1` here?
Its Potency is inconclusive: 2.31 µM [activator, full curve].

With `O=[N+]([O-])c1nn(-c2ccccc2)n(O)c1=NCCc1ccccc1` as the compound, how does the Potency read?
The Potency was inconclusive: 8.2 µM [activator, partial curve].

For `COc1ccc(C(C)NC(=O)Nc2ccc(C(C)=O)cc2)cc1OC` (centres undefined), which Potency is on record?
The Potency was inconclusive: 16.4 µM [activator, partial curve].

Which Potency does the source give for `Cc1nn(C)c(C(=O)Nc2ccn(Cc3c(F)c(F)cc(F)c3F)n2)c1[N+](=O)[O-]` here?
The Potency was “inactive”.

Which Potency does the source give for `COc1ccc(OC)c(NC(=O)CCN2CCN(C/C=C/c3ccccc3)CC2)c1` here?
Its Potency is “inactive”.

Which Potency does the source give for `NS(=O)(=O)c1cccc(NC(=O)CSc2nnc(-c3ccccc3)o2)c1` here?
The Potency was inconclusive: 20.6 µM [activator, single point].

With `COCCn1c(SCC(=O)Nc2ccccc2)nc2c(oc3ccccc32)c1=O` as the compound, how does the Potency read?
The Potency was inconclusive: 29.1 µM [activator, single point].

For `COc1cc(OC)cc(C(=O)N[C@H](C(=O)OCC(=O)N2CCc3ccccc32)C(C)C)c1`, which Potency is on record?
The Potency was “inactive”.

Which Potency does the source give for `COc1ccc(CCN2C(=O)CS/C2=N\NC(=O)c2ccc(C(C)(C)C)cc2)cc1OC` here?
The Potency was inconclusive: 25.9 µM [inhibitor, single point].

Which Potency does the source give for `CN(CCC#N)C(=O)c1cc2c(s1)-c1ccccc1SC2` here?
The Potency was inconclusive: 18.3 µM [activator, partial curve].

With `C[C@H](NS(=O)(=O)c1ccccc1)C(=O)OCC(=O)NC(=O)Nc1ccc2c(c1)OCCO2` as the compound, how does the Potency read?
The Potency was inconclusive: 14.6 µM [activator, partial curve].

Which Potency does the source give for `c1ccc(-c2cccc(-c3ccccn3)n2)nc1` here?
Its Potency is inconclusive: 2.31 µM [inhibitor, partial curve, poor fit].

With `O=C(Nc1ccncc1)c1cc(F)cc(F)c1` as the compound, how does the Potency read?
The Potency was “inactive”.

With `COC(=O)Oc1ccc(/C=N/NC(=O)CN(c2ccccc2Cl)S(C)(=O)=O)cc1OC` as the compound, how does the Potency read?
The Potency was “inactive”.

For `Cc1ccc(C)c(N2CCN(S(=O)(=O)c3ccc(-c4cc(C)no4)s3)CC2)c1`, which Potency is on record?
The Potency was “inactive”.

Which Potency does the source give for `CCN1CCN(C(=O)c2cc(COc3ccc4ncccc4c3)on2)CC1` here?
The Potency was inconclusive: 2.59 µM [inhibitor, partial curve, poor fit].

For `O=C(OCCc1ccccc1)c1cc(O)c(O)c(O)c1`, which Potency is on record?
Its Potency is inconclusive: 10 µM [activator, single point].

With `COC(=O)c1c(-c2ccc(OC)cc2)sc2ccc(OC)cc12` as the compound, how does the Potency read?
The Potency was inconclusive: 18.3 µM [activator, partial curve].

With `CCCSc1nnc(NC(=O)c2ccco2)s1` as the compound, how does the Potency read?
The Potency was inconclusive: 20.6 µM [activator, partial curve].

For `O=C(NCCc1ccccc1)C(=O)NC1CCCCC1`, which Potency is on record?
The Potency was inconclusive: 7.31 µM [activator, partial curve, poor fit].

With `CCC(C)OC(=O)C1=C(C)O[C@]23OC(N)=C(C#N)[C@]12C(=O)c1ccccc13` (some centres undefined) as the compound, how does the Potency read?
The Potency was “inactive”.

For `O=c1cc(/C=C/c2cccs2)[nH]c2ccccc12`, which Potency is on record?
Its Potency is inconclusive: 16.4 µM [inhibitor, partial curve].

With `Cc1nnc(SCC(=O)Nc2cc(Cl)ccc2Cl)n1CC1CCCO1` (centres undefined) as the compound, how does the Potency read?
The Potency was inconclusive: 29.1 µM [activator, single point].

For `O=C(Cc1cccc(NC(=O)C2CCCN(C(=O)CCc3ccccc3)C2)c1)Nc1cccc(C(=O)N2CCCC2)c1` (centres undefined), which Potency is on record?
Its Potency is inconclusive: 18.3 µM [inhibitor, single point].

Which Potency does the source give for `CC(C)(C)c1cc[n+](C2=C([O-])c3ccccc3C(=O)/C2=N\S(=O)(=O)c2cccs2)cc1` here?
Its Potency is active: 2.91 µM.

Which Potency does the source give for `CC(=O)Nc1ccc(-c2cc3ccccc3o2)cc1` here?
Its Potency is inconclusive: 9.2 µM [activator, partial curve].

For `O=C(COc1ccc(Cl)cc1)N1CCCC1`, which Potency is on record?
Its Potency is inconclusive: 18.4 µM [activator, partial curve].

Which Potency does the source give for `O=C(NCc1ccco1)c1cc2cc(Br)ccc2o1` here?
Its Potency is inconclusive: 18.3 µM [activator, partial curve].

For `O=[N+]([O-])c1ccc(-c2cnc(SCc3ccccc3Cl)[nH]2)cc1`, which Potency is on record?
The Potency was inconclusive: 29.1 µM [activator, single point].

Which Potency does the source give for `CCCC1CCc2[nH]nc(C(=O)NN)c2C1` (centres undefined) here?
The Potency was inconclusive: 14.1 µM [activator, single point].

With `Cc1sc(NC(=O)CCCC(=O)O)c(C(N)=O)c1-c1ccccc1` as the compound, how does the Potency read?
Its Potency is inconclusive: 7.3 µM [activator, partial curve].

With `COc1ccccc1C(=O)Nc1ccc2c(c1)CN(C(=O)CSC)CC2` as the compound, how does the Potency read?
Its Potency is “inactive”.

With `Cc1ccc(C)c(OCCC(=O)Nc2ccc(S(=O)(=O)N3CCCC3)cc2)c1` as the compound, how does the Potency read?
Its Potency is “inactive”.

Which Potency does the source give for `Nc1c(C(=O)OCC2CCCO2)c2nc3ccccc3nc2n1C1CCCC1` (centres undefined) here?
The Potency was inconclusive: 25.9 µM [inhibitor, single point].

For `O=C(Nc1ccc2snnc2c1)Nc1cccc2ccccc12`, which Potency is on record?
Its Potency is inconclusive: 29.1 µM [inhibitor, single point].

With `Cc1ccc(NC(=O)CSCc2cc(=O)n3cc(C)sc3n2)cc1` as the compound, how does the Potency read?
The Potency was “inactive”.

Which Potency does the source give for `C#CCNC(=O)C1=C[C@@H](c2cn(C(C)=O)c3ccccc23)C[C@@H](OCc2ccc(CO)cc2)O1` here?
Its Potency is inconclusive: 20.6 µM [inhibitor, partial curve].

With `CCOC(=O)N1CCC(N2Cc3cccc(C(=O)NCc4ccc(C)cc4)c3C2=O)CC1` as the compound, how does the Potency read?
Its Potency is active: 16.4 µM.

With `COc1ccc(CCNC(=O)c2ccc(CNS(=O)(=O)c3cccc(Cl)c3)cc2)cc1OC` as the compound, how does the Potency read?
Its Potency is active: 23.1 µM.

With `O=C(O)c1ccccc1C(=O)NCC(O)COc1ccc(Cl)cc1` (centres undefined) as the compound, how does the Potency read?
The Potency was inconclusive: 23.1 µM [activator, partial curve, poor fit].

Which Potency does the source give for `Cc1csc(SC(C)C(=O)Nc2ccc(S(=O)(=O)N3CCCC3)cc2)n1` (centres undefined) here?
Its Potency is inconclusive: 8.2 µM [inhibitor, partial curve].
